## Library screening results

By UniProt entry, the sequences of proteins in these tests, tags left out.
UniProt E9BF75, entry or part of it: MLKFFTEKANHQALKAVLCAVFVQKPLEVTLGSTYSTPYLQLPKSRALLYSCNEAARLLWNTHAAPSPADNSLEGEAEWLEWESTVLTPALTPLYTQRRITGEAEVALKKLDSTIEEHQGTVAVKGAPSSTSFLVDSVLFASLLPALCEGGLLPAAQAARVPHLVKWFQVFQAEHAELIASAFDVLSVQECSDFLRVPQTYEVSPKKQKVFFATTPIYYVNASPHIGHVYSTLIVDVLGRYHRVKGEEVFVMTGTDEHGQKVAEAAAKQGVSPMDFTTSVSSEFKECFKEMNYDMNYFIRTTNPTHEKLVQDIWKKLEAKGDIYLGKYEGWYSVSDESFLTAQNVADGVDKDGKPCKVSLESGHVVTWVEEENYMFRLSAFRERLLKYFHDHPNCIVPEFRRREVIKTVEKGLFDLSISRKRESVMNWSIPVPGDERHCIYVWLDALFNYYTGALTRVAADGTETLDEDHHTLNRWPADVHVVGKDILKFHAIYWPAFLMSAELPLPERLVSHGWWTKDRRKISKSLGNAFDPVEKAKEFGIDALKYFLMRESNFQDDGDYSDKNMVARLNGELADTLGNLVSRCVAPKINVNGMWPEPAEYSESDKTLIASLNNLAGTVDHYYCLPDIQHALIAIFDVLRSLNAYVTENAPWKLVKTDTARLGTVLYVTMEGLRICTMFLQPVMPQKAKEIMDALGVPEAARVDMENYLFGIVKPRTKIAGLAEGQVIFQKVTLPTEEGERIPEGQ

The values are deposited in ChEMBL (CHEMBL3988442, “University of Dundee, Small-Polar-MMV Screening Library” (2021)).

A: 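Assay on Mycobacterium tuberculosis, filed only as a heat shock assay from Cornell; the read-out is not stated. The concentration is filed as 10 mM, unlikely as a test dose, so the dose is not known. The record gives no direction; compounds that gave an IC50 in retests scored well above the rest, so higher reads as stronger inhibition. Size under these conditions: about 69,000 compounds, about 930 of them at 50% or above in at least one test.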
B: 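Whole-cell assay for inhibitors of Mycobacterium tuberculosis growth, labelled Cornell in the record; the read-out is not stated. The concentration is filed as 10 mM, unlikely as a test dose, so the dose is not known. The record gives no direction; compounds strong in two other growth screens of this library score well above the rest, so higher reads as stronger inhibition. About 53,000 compounds were tested under these conditions; 1.7% (about 900) showed 50% or more at least once.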
C: 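Primary screen of methionyl-tRNA synthetase; the read-out is not stated. Target: Methionyl-tRNA synthetase (putative), Leishmania donovani (UniProt E9BF75). The test concentration is not given. Values are per cent inhibition. Size under these conditions: about 68,000 compounds, about 24 of them at 50% or above in at least one test.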

All values are in %. The record does not define 0% and 100%; most values in the screen are far below 50% and negative numbers occur (in some assays of this library far below -100). The compounds are a random part of those screened. A dash means the value is not listed here; it may have been measured.

O=C(NCc1cn2c(n1)CN(CC1CCOCC1)CC2)C1CCC1 read C: 9.524%.
COCCN(C)C[C@H]1C[C@H](CO)CN(C(=O)c2ccc(=O)n(C)c2)C1 read A: 1.186%; B: 8.769%; C: 10.03%.
CC(C)(C)CN1Cc2cc3c(cc2NCCC1=O)OCO3 read A: -21.82%; B: -61.81%; C: 1.351%.
Cn1nc(C#N)c2c1CN(C(=O)c1cccnc1)CCC2 read C: 2.941%.
O=C(O)C(F)(F)F.O=C(O)C(F)(F)F.[H][C@@]12CN(Cc3ccccn3)C[C@]1([H])CN(S(=O)(=O)c1cn(C)cn1)C2 read A: -32.54%; B: 14.95%.
CCN1CCN(S(=O)(=O)N2CCCC2)[C@H]2CS(=O)(=O)C[C@H]21 read C: 9.507%.
Cc1nn(C)c2c(=O)n(Cc3ccc(F)cc3)nnc12 read A: 12.12%; C: 17.84%.
O=C(C1=COCCO1)N1CC(Oc2nc3c(C(F)(F)F)cccc3s2)C1 read A: 7.152%; B: -4.801%; C: 5.516%.
CC(C)S(=O)(=O)NC(=O)c1cc(-c2cccc(Cl)c2)no1 read A: -10.5%; B: 49.54%; C: 14.7%.
COc1cccc(CN2CC[C@H](c3nnc(-c4ccco4)o3)C2)c1 read A: 0.4791%; B: -26.55%; C: 0.339%.
CN1CCN(C[C@@H]2CN(Cc3c(Cl)cncc3Cl)C[C@@H]2CO)CC1 read A: -18.15%; B: -9.715%; C: 2.405%.
Cc1nc(CCN)cc(N2CCOc3ccc(Cl)cc3C2)n1 read A: 51.61%; B: -32.53%; C: 14.43%.
Cc1cccc(CN2CCC3(CCCN(C(=O)c4ccoc4)C3)C2=O)n1 (centres unmarked) read C: 9.22%.
Cn1ccnc1CN1CCC2(CC1)CN(Cc1cccnc1)C(=O)CO2 read C: 9.22%.
[H][C@@]12CN(Cc3ccccn3)C[C@]1([H])CN(C(=O)C1CCOC1)C2 (some centres unmarked) read A: 1.047%; B: 15.31%.
O=C(O)C(F)(F)F.[H][C@]12CN(Cc3ccccc3F)C[C@@]1([H])OCCN(C(C)=O)C2 read A: -15.06%; B: 14.05%.
CCn1c(CN2CCCC(O)(c3ccc(F)cc3)CC2)cnc1SC.O=C(O)CC(O)(CC(=O)O)C(=O)O (centres unmarked) read A: -16.55%; B: 10.77%.
O=C1C(Nc2ncccn2)CCN1c1ccccc1OC(F)F (centres unmarked) read A: 23.06%; B: 12.15%; C: 16.75%.

2 of the entries, repeated:

structure,A,B,C
[H][C@@]12CN(Cc3ccccn3)C[C@]1([H])CN(C(=O)C1CCOC1)C2 (some centres unmarked),1.047,15.31,-
Cn1nc(C#N)c2c1CN(C(=O)c1cccnc1)CCC2,-,-,2.941